{"source": "paper PMC4396151", "test_system": "STAT5 (activated by PDGFRα-V561D, -D842V or -D842Y)", "test": "EMSA with supershift", "conditions": "nuclear extract of doxycycline-induced cells expressing PDGFRα-V561D, EMSA as previously described (ref 55), protein in an extract, label: 32P 5' end label", "note": "For at least one entry, the source does not settle the construct or the ends of the probe. At least one result comes from cells or an extract, where the contact may be indirect.", "data": [{"sequence": "AGATTTCTAGGAATTCAAATC / GATTTGAATTCCAAGAAATCT [β-casein oligonucleotide]", "values": [{"measurement": "binding result", "result": "binds"}]}]}
